Assay results from article PMC3812651.
These are yes or no findings as the source states them, for the method shown. Binding seen in cells or lysates may run through a third protein. Here binding means that the protein was enriched with, or labelled near, the bait; the list need not be complete.

Sequences of proteins named here, by UniProt entry; tags and fusion partners are left off.
UniProt Q8N6T7: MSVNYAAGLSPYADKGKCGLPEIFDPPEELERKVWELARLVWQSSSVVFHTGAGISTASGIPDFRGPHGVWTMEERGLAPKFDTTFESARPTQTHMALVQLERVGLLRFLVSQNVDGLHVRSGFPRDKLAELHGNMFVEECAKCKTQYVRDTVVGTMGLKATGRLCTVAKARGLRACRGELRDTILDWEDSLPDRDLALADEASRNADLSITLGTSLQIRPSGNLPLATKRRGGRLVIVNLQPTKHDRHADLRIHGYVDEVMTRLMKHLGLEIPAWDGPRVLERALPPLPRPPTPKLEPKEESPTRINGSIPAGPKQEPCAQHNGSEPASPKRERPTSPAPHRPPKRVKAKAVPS
UniProt Q13283: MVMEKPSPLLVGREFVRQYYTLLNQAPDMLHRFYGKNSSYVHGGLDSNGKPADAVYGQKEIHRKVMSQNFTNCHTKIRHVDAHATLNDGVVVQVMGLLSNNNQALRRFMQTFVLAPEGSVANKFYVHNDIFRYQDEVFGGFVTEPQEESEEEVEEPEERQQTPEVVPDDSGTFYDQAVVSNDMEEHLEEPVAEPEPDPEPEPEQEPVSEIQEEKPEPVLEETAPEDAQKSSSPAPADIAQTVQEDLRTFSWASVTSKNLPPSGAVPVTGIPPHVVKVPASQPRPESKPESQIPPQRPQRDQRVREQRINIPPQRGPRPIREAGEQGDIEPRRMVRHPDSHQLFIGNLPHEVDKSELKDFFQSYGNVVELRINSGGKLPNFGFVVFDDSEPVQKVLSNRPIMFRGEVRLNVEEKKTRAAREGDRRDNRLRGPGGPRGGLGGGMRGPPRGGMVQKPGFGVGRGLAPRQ
UniProt P78527: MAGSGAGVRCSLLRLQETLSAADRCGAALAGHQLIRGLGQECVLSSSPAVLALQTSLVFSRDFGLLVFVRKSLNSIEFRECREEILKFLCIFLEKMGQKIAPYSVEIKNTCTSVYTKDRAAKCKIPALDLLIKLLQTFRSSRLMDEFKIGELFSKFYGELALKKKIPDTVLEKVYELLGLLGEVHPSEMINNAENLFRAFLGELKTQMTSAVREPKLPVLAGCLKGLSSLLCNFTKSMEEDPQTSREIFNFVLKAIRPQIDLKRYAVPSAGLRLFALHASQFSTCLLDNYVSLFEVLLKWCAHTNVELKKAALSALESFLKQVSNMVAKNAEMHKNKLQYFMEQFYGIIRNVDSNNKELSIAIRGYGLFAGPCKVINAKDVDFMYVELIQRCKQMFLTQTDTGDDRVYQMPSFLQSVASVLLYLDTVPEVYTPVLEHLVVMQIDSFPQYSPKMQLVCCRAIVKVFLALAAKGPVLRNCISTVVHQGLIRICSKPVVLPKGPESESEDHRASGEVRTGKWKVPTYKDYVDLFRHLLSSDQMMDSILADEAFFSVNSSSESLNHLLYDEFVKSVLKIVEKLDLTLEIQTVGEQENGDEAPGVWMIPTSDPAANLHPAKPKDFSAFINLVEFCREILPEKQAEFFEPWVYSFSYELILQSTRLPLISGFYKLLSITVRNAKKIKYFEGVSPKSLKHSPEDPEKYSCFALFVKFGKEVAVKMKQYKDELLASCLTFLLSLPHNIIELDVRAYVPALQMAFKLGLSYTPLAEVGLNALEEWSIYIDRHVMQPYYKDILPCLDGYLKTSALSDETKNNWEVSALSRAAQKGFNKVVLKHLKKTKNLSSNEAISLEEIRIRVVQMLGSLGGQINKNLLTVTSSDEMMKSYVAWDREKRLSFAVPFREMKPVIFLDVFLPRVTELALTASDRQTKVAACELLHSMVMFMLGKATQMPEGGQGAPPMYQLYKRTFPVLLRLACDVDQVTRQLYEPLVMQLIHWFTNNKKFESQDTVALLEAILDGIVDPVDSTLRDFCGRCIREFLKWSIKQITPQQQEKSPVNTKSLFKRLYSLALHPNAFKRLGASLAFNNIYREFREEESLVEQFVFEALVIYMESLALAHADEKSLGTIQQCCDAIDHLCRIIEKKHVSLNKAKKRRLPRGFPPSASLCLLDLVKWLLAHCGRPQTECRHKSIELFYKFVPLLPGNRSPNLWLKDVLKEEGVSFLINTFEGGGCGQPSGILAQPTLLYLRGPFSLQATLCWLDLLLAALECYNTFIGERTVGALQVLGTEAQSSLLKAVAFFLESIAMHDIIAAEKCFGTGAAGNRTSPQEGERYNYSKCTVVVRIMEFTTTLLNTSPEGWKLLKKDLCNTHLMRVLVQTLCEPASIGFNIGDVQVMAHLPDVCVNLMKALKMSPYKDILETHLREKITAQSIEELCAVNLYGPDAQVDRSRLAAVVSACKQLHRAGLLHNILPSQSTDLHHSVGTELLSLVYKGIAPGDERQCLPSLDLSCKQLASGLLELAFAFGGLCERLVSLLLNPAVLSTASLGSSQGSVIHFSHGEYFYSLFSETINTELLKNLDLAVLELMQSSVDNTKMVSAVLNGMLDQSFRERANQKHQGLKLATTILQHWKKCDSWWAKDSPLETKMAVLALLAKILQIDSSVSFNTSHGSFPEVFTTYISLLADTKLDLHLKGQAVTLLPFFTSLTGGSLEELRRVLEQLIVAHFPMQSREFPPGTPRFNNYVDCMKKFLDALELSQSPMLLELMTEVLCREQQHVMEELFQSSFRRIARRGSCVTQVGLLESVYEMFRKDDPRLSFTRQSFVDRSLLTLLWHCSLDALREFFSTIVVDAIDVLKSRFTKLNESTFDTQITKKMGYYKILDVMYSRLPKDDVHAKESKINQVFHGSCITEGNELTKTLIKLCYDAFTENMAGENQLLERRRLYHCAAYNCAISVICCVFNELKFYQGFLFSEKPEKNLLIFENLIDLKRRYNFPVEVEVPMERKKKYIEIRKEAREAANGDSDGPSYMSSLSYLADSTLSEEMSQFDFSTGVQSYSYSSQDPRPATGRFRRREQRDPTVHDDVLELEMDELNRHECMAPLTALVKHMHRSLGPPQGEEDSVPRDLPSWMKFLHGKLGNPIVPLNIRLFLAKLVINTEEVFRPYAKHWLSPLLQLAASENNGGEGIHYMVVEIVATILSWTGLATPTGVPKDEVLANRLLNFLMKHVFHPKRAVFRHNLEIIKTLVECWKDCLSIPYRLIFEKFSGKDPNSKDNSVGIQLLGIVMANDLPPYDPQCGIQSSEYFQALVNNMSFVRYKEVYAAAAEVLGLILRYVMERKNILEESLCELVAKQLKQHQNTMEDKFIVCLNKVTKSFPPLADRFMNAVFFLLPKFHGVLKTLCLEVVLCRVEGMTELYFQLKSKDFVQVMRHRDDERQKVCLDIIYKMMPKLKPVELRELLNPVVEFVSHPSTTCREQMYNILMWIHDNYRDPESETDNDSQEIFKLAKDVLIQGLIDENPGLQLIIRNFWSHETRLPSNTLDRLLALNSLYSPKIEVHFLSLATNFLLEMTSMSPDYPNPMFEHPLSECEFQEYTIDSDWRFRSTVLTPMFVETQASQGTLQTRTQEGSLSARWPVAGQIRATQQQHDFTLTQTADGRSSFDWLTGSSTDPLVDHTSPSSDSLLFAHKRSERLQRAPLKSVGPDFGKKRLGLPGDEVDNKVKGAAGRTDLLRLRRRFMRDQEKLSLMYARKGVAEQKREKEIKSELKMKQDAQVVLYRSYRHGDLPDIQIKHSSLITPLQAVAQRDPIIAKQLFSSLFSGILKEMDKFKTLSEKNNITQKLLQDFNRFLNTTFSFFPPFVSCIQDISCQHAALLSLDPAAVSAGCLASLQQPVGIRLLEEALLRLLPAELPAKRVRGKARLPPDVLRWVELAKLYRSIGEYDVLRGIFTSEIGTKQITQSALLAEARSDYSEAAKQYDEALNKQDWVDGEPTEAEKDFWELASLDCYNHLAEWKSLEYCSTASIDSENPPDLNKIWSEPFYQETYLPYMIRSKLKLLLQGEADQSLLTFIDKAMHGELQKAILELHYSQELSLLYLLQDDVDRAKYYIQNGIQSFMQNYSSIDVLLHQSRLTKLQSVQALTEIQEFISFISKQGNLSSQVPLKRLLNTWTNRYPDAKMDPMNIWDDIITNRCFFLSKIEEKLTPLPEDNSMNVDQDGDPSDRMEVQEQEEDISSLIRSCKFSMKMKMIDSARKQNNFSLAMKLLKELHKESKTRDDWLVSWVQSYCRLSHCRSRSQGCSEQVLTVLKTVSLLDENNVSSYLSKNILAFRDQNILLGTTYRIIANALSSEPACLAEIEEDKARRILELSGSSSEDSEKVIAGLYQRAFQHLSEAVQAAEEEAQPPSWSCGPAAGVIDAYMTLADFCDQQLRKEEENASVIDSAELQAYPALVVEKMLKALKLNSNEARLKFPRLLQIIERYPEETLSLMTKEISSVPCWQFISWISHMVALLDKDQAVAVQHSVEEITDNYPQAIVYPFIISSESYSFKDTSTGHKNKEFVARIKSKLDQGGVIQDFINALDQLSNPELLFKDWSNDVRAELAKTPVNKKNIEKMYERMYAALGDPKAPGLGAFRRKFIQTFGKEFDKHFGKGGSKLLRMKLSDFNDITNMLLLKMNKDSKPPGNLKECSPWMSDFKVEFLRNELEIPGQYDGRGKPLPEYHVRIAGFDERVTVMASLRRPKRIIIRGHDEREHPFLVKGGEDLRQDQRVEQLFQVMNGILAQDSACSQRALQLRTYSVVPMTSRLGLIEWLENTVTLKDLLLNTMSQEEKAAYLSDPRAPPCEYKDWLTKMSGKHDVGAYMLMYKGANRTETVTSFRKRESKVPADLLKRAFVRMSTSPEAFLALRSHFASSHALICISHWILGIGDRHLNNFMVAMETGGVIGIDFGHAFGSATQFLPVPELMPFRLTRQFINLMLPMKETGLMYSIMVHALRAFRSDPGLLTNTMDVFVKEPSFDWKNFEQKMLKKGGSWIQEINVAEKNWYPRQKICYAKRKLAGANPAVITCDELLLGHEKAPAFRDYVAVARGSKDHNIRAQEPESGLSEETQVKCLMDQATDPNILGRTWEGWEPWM

Target: SIRT6 with a C-terminal FLAG tag, stably expressed in HeLa S3 cells (UniProt Q8N6T7)
Assay: affinity purification with mass spectrometry; SIRT6-FLAG from pooled Superose 6 fractions (400-600, 600-800, 800-1200 KDa) of HeLa S3 nuclear extract on anti-FLAG M2 agarose, eluted with Flag-peptide, LC-MS; control cells in parallel

Substance | binding
G3BP1 (GTPase Activating Protein Binding Protein 1), endogenous in human cells (from UniProt Q13283 1-466) | binds
DNA-PKcs, endogenous in HeLa S3 cells (from UniProt P78527 1-4128) | binds
